# According to PubChem BioAssay:
# For some assays here: This list holds what a sample rich in hits left over. Only a part is listed here, and it is no random draw. For some assays here: Potency and affinity values are given separately. Results filed as inconclusive are left out. Calls of active or inactive are those of the source.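 Rule for the calls, unless noted: active = fitted curve reaches a 35% signal fall AC35 below twice the sample's top valid tested dose (actives reach about 48 µM in these data); inactive = the rest, including activity in the rising direction.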
# Experiments:
# [1] = small-molecule DNA binding by polarization – biochemical, fluorescence polarization, cherry-pick, counter-screen for EWS/Fli inhibitor project, dose response (AID 720586); conditions: salmon sperm DNA acridine orange fluorescence polarization; at 68 µM (top of the series);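 note: 0% = neutral control median and -100% = 10 µM mitoxantrone control median; lower polarization ratio signals compound binding to DNA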
# [2] = general cell-killing toxicity readout – plate reader, dry powder samples, cytotoxicity control for PAX8 inhibitor project, dose response (AID 743021; call rule not given here); conditions: cell line, non-specific cytotoxicity counter-screen; at 35 µM (top of the series)
SMILES,"activity change, negative = DNA binding [1]","activity change, negative = cytotoxicity [2]"
CN(C)C(=O)c1cccc(COc2ccc(N3C(N)=NC(N)=NC3(C)C)cc2Cl)c1,inactive: -16.3%,
O=C(CCCCCCC(=O)Nc1ccccc1)NO,,inactive: -14.8%
